Data as given in PubChem BioAssay AID1508597 (Cure First, 2020)
This is a random part of the about 2,100 reagents, under one of the conditions tested. 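Calls flag viability under 80% in either arm, not effects specific to rucaparib; the reference for percent is not stated.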 Reagent sequences are not shown. The record does not give: the 100% reference.

- Purpose: 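Knock-downs altering ovarian cancer cell survival with or without PARP inhibitor rucaparib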 (primary screen)
- Cell system: human ovarian carcinoma lines grown from tumours: OCI-P5x (papillary serous) and OCI-C5x (clear cell)
- Reagent: siRNA pool against human genes, 1.25 pmol siRNA per well
- Time to read-out: 72 h or 96 h, depending on the cell culture
- Challenge: rucaparib 20 µM (about IC30) or vehicle, present until read-out
- Rucaparib or vehicle: Vehicle
- Cell line: OCI-P5x (serous)
- Measurement: 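ATP luminescence measured at 72 or 96 h according to the culture, then normalised and expressed as percent viability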
- Scale: viability, normalised: higher = more viable cells remaining
- Rule for the call: 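Active when normalised viability falls below 80 percent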
- Meaning of the calls: active = viability under 80%; inactive = viability 80% or more

The first 7 records, to show the layout:
gene	technical replicate	viability, normalised (%)	Call
JMJD6	1	58.3	active
JMJD6	2	73.8	active
JMJD6	3	71.9	active
PRDM9	1	69.2	active
PRDM9	2	85.3	inactive
PRDM9	3	145	inactive
ITGB5	1	57.2	active

The listing, from the first entry:
gene	technical replicate	viability, normalised (%)	Call
JMJD6	1	58.3	active
JMJD6	2	73.8	active
JMJD6	3	71.9	active
PRDM9	1	69.2	active
PRDM9	2	85.3	inactive
PRDM9	3	145	inactive
ITGB5	1	57.2	active
ITGB5	2	66.1	active
ITGB5	3	70.8	active
PIP4K2C	1	67.6	active
PIP4K2C	2	65.2	active
PIP4K2C	3	75.9	active
H4C3	1	60.1	active
H4C3	2	67.4	active
H4C3	3	65.5	active
FGFR3	1	73.7	active
FGFR3	2	59.3	active
FGFR3	3	66.1	active
PIM3	1	70	active
PIM3	2	67.4	active
PIM3	3	71.1	active
ITPK1	1	68	active
ITPK1	2	63.3	active
ITPK1	3	69	active
HDAC3	1	64.4	active
HDAC3	2	83.2	inactive
HDAC3	3	80.6	inactive
NABP2	1	66.2	active
NABP2	2	58.8	active
NABP2	3	31.6	active
SCYL3	1	97.6	inactive
SCYL3	2	86.3	inactive
SCYL3	3	82.9	inactive
PKN3	1	59.8	active
PKN3	2	54	active
PKN3	3	53.5	active
TSPYL1	1	64.8	active
TSPYL1	2	42	active
TSPYL1	3	93.9	inactive
PFKP	1	89.5	inactive
PFKP	2	69.6	active
PFKP	3	68.3	active
ILK	1	149	inactive
ILK	2	148	inactive
ILK	3	154	inactive
EPB41L5	1	59.3	active
EPB41L5	2	68.4	active
EPB41L5	3	71.9	active
EME1	1	101	inactive
EME1	2	61.1	active
EME1	3	85.1	inactive
ARID3A	1	83.3	inactive
ARID3A	2	75.8	active
ARID3A	3	91.1	inactive
GGCT	1	71.6	active
GGCT	2	64.9	active
GGCT	3	73	active
